# “And” between values parts separate entries of the source, which are not always exact repeats. Equal values may be shown once. Where a name gives a salt, the structure may show the parent alone. ± gives the standard deviation of the averaged measurements. The list shows a part of the results. Baselines shift from plate to plate; read single values as rough.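 Culture-activated primary human stellate myofibroblasts, where regained lipid droplets signal inactivation. Value: share of Hoechst-counted cells above a per-plate Bodipy cutoff, in duplicate wells, with DMSO negative and nortriptyline positive controls on each plate. Hits: a control-normalized score above the plate's top-tenth-percentile nortriptyline wells, or one of a plate's three best wells. Final well concentrations are not given.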
# Test system: primary human hepatic stellate cells (donor 1)
# Experiment: percent Bodipy-positive cells; higher = more lipid droplet accumulation
# Details: 48 h
# [1] = library stock concentration: 10 mM
# [2] = library stock concentration: 3.33 mM
# [3] = library stock concentration: 1 mM
structure (smiles),measurement,setting,value
CC1CCC(C(C)C)C(O)C1 (stereo not drawn) [Menthol(-)],percent Bodipy-positive cells,[1],35.7 ± 3.9%
O=C(O)CC[C@H]1CC[C@@](c2cc(F)ccc2F)(S(=O)(=O)c2ccc(Cl)cc2)CC1,percent Bodipy-positive cells,[2],5.16 ± 1.4%
same,percent Bodipy-positive cells,[1],6.91 ± 0.15%
"C/C=C1\NC(=O)[C@H]2CSSCC/C=C/[C@H](CC(=O)N[C@H](C(C)C)C(=O)N2)OC(=O)[C@H](C(C)C)NC1=O [Romidepsin (FK228, Depsipeptide)]",percent Bodipy-positive cells,[2],94.2 ± 4.4%
same,percent Bodipy-positive cells,[1],100%
COc1ccc2c(c1)N(C[C@H](C)CN(C)C)c1ccccc1S2 [Methotrimeprazine maleat salt],percent Bodipy-positive cells,,52.1 ± 2.1%
COC(=O)c1ccccc1O [Methyl salicylate],percent Bodipy-positive cells,library stock concentration: 13.1 mM,10.9 ± 0.79%
CCCN(CCC)C(=O)C(CCC(=O)O)NC(=O)c1ccccc1 (stereo unspecified) [Proglumide],percent Bodipy-positive cells,,16.3 ± 2%
same,percent Bodipy-positive cells,library stock concentration: 6 mM,20.3 ± 3.2%
same,percent Bodipy-positive cells,[1],30.8% and 45%
CCCCC/C=C\C/C=C\C/C=C\C/C=C\CCCC(=O)OCc1ccsc1,percent Bodipy-positive cells,[3],8.96 ± 2%
Nc1nc(N)c2nc(-c3cccc(O)c3)cnc2n1,percent Bodipy-positive cells,[2],5.67 ± 1.4%
same,percent Bodipy-positive cells,[1],10.2 ± 0.55%
CCN1C(=O)NC(c2ccccc2)C1=O (stereo unspecified) [Ethotoin],percent Bodipy-positive cells,,10.6 ± 0.53%
CCCCC/C=C/C/C=C/C/C=C/C/C=C/CCCC(=O)Oc1ccc2ccc(=O)oc2c1 [7-hydroxycoumarinyl Arachidonate],percent Bodipy-positive cells,[3],6.65 ± 2.7%
COc1ccccc1N1CCN(CC(O)COc2cccc3ccccc23)CC1 (stereo unspecified) [Naftopidil],percent Bodipy-positive cells,[2],8.668 ± 0.0014%
same,percent Bodipy-positive cells,[1],22 ± 1.1%
COc1ccccc1N1CCN(CC(O)COc2cccc3ccccc23)CC1 (stereo unspecified) [Naftopidil 2HCl],percent Bodipy-positive cells,library stock concentration: 5.1 mM,11.21 ± 0.037%
COc1ccccc1N1CCN(CC(O)COc2cccc3ccccc23)CC1 (stereo unspecified) [Naftopidil DiHCl],percent Bodipy-positive cells,[2],7.13 ± 0.57%
same,percent Bodipy-positive cells,[1],34.6 ± 8.1%
COc1ccccc1N1CCN(CC(O)COc2cccc3ccccc23)CC1 (stereo unspecified) [Naftopidil hydrochloride],percent Bodipy-positive cells,[1],29.6 ± 0.95%
COc1ccccc1N1CCN(CC(O)COc2cccc3ccccc23)CC1 (stereo unspecified) [Naftopidil dihydrochloride],percent Bodipy-positive cells,,13.9 ± 0.73%
same,percent Bodipy-positive cells,[1],77.6 ± 2.7%
COc1ccccc1N1CCN(CC(O)COc2cccc3ccccc23)CC1 (stereo unspecified),percent Bodipy-positive cells,[1],37.1 ± 5.3%
Cc1nnc(-c2ccc3occ(-c4ccc([S+](C)[O-])cc4)c3c2)o1 (stereo unspecified),percent Bodipy-positive cells,[1],13.5 ± 0.22%
CN1CCC(=C2c3ccccc3CC(=O)c3sccc32)CC1,percent Bodipy-positive cells,[1],63.01 ± 0.44%
CN1CCC(=C2c3ccccc3CC(=O)c3sccc32)CC1 [Ketotifen fumarate],percent Bodipy-positive cells,,66.425 ± 0.023%
same,percent Bodipy-positive cells,library stock concentration: 4.7 mM,56.8 ± 12%
same,percent Bodipy-positive cells,[1],65.5% and 50.6%
CN1CCC(=C2c3ccccc3CC(=O)c3sccc32)CC1 [Ketotifen Fumarate],percent Bodipy-positive cells,[2],29.9 ± 11%
same,percent Bodipy-positive cells,[1],55.2 ± 3.1%
CC(C)(C)C(=O)OCOP(=O)(COCCn1cnc2c(N)ncnc21)OCOC(=O)C(C)(C)C [Adefovir Dipivoxil],percent Bodipy-positive cells,[2],22.2 ± 8.7%
same,percent Bodipy-positive cells,[1],38.2 ± 3.3%
O=C1Cc2c([nH]c3ccc([N+](=O)[O-])cc23)-c2ccccc2N1 [Alsterpaullone],percent Bodipy-positive cells,[2],21.6 ± 1.1%
CC[C@@H](CC[C@@H](C)[C@H]1CC[C@H]2[C@@H]3CCC4C[C@@H](O)CC[C@]4(C)[C@H]3CC[C@]12C)C(C)C (stereo partly drawn) [Beta-sistosterol],percent Bodipy-positive cells,,11.8 ± 0.68%
"CN1CCN(c2ccc3nc(-c4c(N)c5c(F)cccc5[nH]c4=O)[nH]c3c2)CC1 [Dovitinib (TKI-258, CHIR-258)]",percent Bodipy-positive cells,[2],95.5 ± 1.4%
same,percent Bodipy-positive cells,[1],95.1 ± 1.9%
CCN(CC)CCOCCOC(=O)C(CC)(CC)c1ccccc1.O=C(O)CC(O)(CC(=O)O)C(=O)O,percent Bodipy-positive cells,[1],93.2 ± 1.7%
O=S(=O)(c1cccc2c(I)cccc12)N1CCCNCC1,percent Bodipy-positive cells,library stock concentration: 80 uM,8.74 ± 1.3%
same,percent Bodipy-positive cells,library stock concentration: 400 uM,13 ± 4.2%
same,percent Bodipy-positive cells,library stock concentration: 2 mM,30.4 ± 3.5%
"O=S(=O)(c1cccc2c(I)cccc12)N1CCCNCC1 [ML-7, Hydrochloride]",percent Bodipy-positive cells,[2],37.7 ± 0.67%
COc1cc(OC)c(C(=O)CCCN2CCCC2)c(OC)c1 [Buflomedil HCl],percent Bodipy-positive cells,[2],6.23 ± 1.6%
same,percent Bodipy-positive cells,[1],9.89 ± 1.6%
COc1cc(OC)c(C(=O)CCCN2CCCC2)c(OC)c1,percent Bodipy-positive cells,[1],16.2 ± 5.8%
COc1cc(OC)c(C(=O)CCCN2CCCC2)c(OC)c1 [Buflomedil hydrochloride],percent Bodipy-positive cells,,30 ± 2.8%
CC(=O)NCCc1c[nH]c2ccc(O)cc12 [N-Acetyl-5-hydroxytryptamine],percent Bodipy-positive cells,[1],49.9 ± 5.8%
CC(C)Oc1ccc(Cc2ccc(NC3=NCCN3)cc2)cc1,percent Bodipy-positive cells,[3],36.2 ± 13%
N#CC(c1ccc(Cl)cc1)c1c(Cl)cc(-n2ncc(=O)[nH]c2=O)cc1Cl (stereo unspecified) [Diclazuril],percent Bodipy-positive cells,[2],10.9 ± 6.6%
same,percent Bodipy-positive cells,library stock concentration: 4.9 mM,10.6 ± 4.2%
same,percent Bodipy-positive cells,[1],15.9 ± 3.5%
O=c1ccc2ccc(O)c(O)c2o1 [Daphnetin],percent Bodipy-positive cells,[2],4.58 ± 2.3%
same,percent Bodipy-positive cells,[1],9.68% and 24.3%
O.O.O.O.O=C([O-])CC(O)(CC(=O)[O-])C(=O)[O-].[Li+].[Li+].[Li+] [Lithium citrate],percent Bodipy-positive cells,library stock concentration: 9.5 mM,12.09 ± 0.021%
same,percent Bodipy-positive cells,[1],25.1 ± 6.3%
Oc1ccc(Cl)c2cccnc12 [Cloxyquin],percent Bodipy-positive cells,[1],8.71 ± 1.8%
Nc1c(Br)cc(Br)cc1CN[C@H]1CC[C@H](O)CC1 [Ambroxol hydrochloride],percent Bodipy-positive cells,,42.8 ± 4.4%
same,percent Bodipy-positive cells,[1],36.1% and 35.4%
Nc1c(Br)cc(Br)cc1CN[C@H]1CC[C@H](O)CC1 [Ambroxol],percent Bodipy-positive cells,library stock concentration: 5.3 mM,19.9 ± 2.3%
Nc1c(Br)cc(Br)cc1CN[C@H]1CC[C@H](O)CC1 [Ambroxol HCl],percent Bodipy-positive cells,[2],16.9 ± 4.6%
same,percent Bodipy-positive cells,[1],48.2 ± 4.6%

# Random excerpt: 3 entries already listed
structure (smiles),measurement,setting,value
COc1cc(OC)c(C(=O)CCCN2CCCC2)c(OC)c1 [Buflomedil HCl],percent Bodipy-positive cells,[1],9.89 ± 1.6%
"CN1CCN(c2ccc3nc(-c4c(N)c5c(F)cccc5[nH]c4=O)[nH]c3c2)CC1 [Dovitinib (TKI-258, CHIR-258)]",percent Bodipy-positive cells,[1],95.1 ± 1.9%
"O=S(=O)(c1cccc2c(I)cccc12)N1CCCNCC1 [ML-7, Hydrochloride]",percent Bodipy-positive cells,[2],37.7 ± 0.67%

# — the supplement of paper PMC9135407
